Data from publication doi:10.1101/2022.02.01.475276.
These are yes or no findings as the source states them, for the method shown. In cells and extracts the contact can be indirect. These calls come from enrichment with a bait or labelling near it, and not all partners need be listed.

By UniProt entry, the sequences of proteins in these tests, tags left out. Where a name states a change or a piece, a line headed by the entry shows the natural chain unless it says otherwise. Chains listed by the source or under a name are the forms on record and can include a tag or linker. Residues count along the entry.
UniProt P81133: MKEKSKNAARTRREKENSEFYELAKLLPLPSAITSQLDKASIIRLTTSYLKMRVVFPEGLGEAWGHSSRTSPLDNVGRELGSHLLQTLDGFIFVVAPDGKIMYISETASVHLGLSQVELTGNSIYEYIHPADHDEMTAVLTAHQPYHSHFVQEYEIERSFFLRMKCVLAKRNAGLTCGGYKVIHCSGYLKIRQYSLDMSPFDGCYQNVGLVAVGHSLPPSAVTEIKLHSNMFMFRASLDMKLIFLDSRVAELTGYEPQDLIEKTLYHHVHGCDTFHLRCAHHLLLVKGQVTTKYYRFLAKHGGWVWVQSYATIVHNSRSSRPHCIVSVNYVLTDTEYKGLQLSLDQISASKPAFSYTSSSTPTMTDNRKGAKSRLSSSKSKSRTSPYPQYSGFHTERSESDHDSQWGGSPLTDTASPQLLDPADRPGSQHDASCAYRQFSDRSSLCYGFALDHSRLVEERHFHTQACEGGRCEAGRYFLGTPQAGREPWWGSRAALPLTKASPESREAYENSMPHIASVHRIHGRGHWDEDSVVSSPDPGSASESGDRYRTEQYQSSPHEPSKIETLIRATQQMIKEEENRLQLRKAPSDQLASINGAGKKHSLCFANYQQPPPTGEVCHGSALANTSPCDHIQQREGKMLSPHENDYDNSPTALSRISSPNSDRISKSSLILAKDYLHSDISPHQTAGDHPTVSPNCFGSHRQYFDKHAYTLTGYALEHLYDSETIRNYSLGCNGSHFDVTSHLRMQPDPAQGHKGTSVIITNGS
hSim1.3xFlag2xStrep(1-348): residues 1-348 of P81133
hSim1(R171H).3xFlag2xStrep(1-348) (P81133, form named): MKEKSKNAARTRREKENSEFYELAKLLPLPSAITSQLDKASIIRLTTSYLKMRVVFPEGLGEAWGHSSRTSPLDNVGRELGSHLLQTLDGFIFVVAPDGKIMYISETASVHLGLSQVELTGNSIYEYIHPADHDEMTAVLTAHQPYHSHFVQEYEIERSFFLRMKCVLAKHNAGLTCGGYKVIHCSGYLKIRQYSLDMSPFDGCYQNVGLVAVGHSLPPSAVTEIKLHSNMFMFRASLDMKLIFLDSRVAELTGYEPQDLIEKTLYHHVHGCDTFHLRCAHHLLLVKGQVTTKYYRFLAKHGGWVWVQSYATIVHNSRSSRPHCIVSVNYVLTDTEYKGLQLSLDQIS
UniProt P27540: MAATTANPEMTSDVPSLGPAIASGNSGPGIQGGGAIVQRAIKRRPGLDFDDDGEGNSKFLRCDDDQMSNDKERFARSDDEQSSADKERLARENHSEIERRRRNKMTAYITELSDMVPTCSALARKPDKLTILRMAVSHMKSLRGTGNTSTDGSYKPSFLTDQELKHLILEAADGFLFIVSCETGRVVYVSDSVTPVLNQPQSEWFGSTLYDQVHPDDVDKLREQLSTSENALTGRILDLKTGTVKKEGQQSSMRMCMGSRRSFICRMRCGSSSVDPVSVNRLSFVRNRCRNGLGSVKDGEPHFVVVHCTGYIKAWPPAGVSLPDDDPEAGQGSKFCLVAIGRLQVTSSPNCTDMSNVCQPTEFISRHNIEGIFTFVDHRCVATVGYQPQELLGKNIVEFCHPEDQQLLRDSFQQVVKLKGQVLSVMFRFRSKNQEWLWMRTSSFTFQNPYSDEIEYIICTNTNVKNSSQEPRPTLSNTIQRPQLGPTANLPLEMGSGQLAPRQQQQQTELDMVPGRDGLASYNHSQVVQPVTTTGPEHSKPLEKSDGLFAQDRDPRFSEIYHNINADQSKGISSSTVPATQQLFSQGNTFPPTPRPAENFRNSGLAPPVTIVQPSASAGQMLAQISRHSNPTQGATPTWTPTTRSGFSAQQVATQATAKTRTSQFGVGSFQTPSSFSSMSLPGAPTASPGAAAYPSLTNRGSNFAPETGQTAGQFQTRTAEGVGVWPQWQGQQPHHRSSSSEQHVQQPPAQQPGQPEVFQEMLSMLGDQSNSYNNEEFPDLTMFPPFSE
UniProt Q9HBZ2, residues 1-455: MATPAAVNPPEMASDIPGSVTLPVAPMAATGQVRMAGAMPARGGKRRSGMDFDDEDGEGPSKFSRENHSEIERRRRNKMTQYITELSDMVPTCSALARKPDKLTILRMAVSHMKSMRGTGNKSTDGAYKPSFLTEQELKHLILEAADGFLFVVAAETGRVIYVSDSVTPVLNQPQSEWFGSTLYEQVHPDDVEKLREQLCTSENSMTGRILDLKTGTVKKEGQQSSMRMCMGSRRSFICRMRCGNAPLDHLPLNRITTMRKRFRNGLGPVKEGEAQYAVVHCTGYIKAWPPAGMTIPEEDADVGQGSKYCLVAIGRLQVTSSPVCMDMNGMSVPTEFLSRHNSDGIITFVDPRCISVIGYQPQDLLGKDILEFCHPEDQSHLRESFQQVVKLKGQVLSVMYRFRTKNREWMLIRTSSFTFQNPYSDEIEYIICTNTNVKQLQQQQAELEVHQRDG

Assays:
Assay in all cases: affinity purification with mass spectrometry
[1] = target: hSim1.3xFlag2xStrep(1-348) (human) (UniProt P81133)
[2] = target: hSim1(R171H).3xFlag2xStrep(1-348) (human) (UniProt P81133)
[3] = target: hSIM1-2xHA-3xFlag (human) (UniProt P81133)
[4] = target: hSIM1.R171H-2xHA-3xFlag (human) (UniProt P81133)

binding [1]	binding [2]	binding [3]	binding [4]	Substance
binds	binds	binds	binds	ARNT (endogenous, HEK293T) (from UniProt P27540 1-789)
binds	binds			hARNT2(1-455)-Myc (from UniProt Q9HBZ2 1-455) (domain or fragment)
